PubChem BioAssay AID2685 (National Center for Advancing Translational Sciences (NCATS), 2010)
The other results are listed elsewhere or left out. These are further read-outs of the screen, such as a control signal, another cell line or another target. No call is given for them. The list favours compounds with an active or inconclusive main result. Potencies come from curve fits of mixed quality, noted in brackets.

Assay: qHTS Assay for Lipid Storage Modulators in Drosophila S3 Cells;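 as to cell number change: cells counted by Cell Tracker Red CMTPX staining in the red channel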
Settings: BODIPY lipid droplet fluorescence, 18-24 h; for cell number change: measured here: cell count max response, cells fed with added oleic acid
Procedure, shortened: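 Drosophila S3 cells got compounds at several concentrations plus oleic acid (400 uM solution). Laser-scanning cytometry with 488 nm excitation read lipid droplets at 500-530 nm and cells at 575-640 nm. Percent activity was relative to 20 uM Triacsin C.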

[1] = measured here: lipid fluorescence (Fed channel) AC50, cells fed with added oleic acid
[2] = measured here: cell number channel AC50, cells fed with added oleic acid

SMILES	cell number change [%]	AC50 [1]	AC50 [2]
COC(=O)c1c(-c2ccc(OC)cc2)oc2ccc(-c3ccc(OC)nc3)cc12	16.2	4.11 µM [falling, partial curve, poor fit]	–
CCCCCCSc1nnc(-c2cnn(-c3ccccc3)c2-n2cccc2)n1C	8.12	–	–
CC1CCc2sc(NC(=S)NC(=O)c3ccccc3)c(C#N)c2C1 (stereo unspecified)	17.5	0.651 µM [rising, full curve, poor fit]	–
NC(CO)(CO)COCc1ccccc1	1.43	–	–
Cc1ncc(CO)c2cc(C(=O)Nc3ccccc3Cl)c(=Nc3cccc(C(N)=O)c3)oc12	-6.34	3.26 µM [falling, full curve]	–
O=C(c1cnn2c1NC(c1ccc(Br)cc1)CC2C(F)(F)F)N1CCN(C23CC4CC(CC(C4)C2)C3)CC1 (stereo unspecified)	-27.9	29.1 µM [falling, single point]	–
O=[N+]([O-])c1ccc(OCc2nnc(-c3ccccc3)o2)cc1	–	0.092 µM [rising, single point]	–
CC1CCC(NC(=O)CN2C(=O)C3CC=CCC3C2=O)CC1 (stereo unspecified)	-42.8	–	29.1 µM [falling, single point]
CC1CN(S(=O)(=O)c2ccc(CN3C(=O)c4cccnc4C3=O)s2)c2ccccc2O1 (stereo unspecified)	-2.36	29.1 µM [rising, single point]	–
CC(c1ccccc1)n1c(S(=O)(=O)O)nc2ccccc21 (stereo unspecified)	10	0.731 µM [rising, full curve, poor fit]	–
Cc1cccc(NC2=Nc3ccccc3N3C2=Nc2c(c(C)nn2-c2ccccc2)C3c2ccc(O)c(O)c2)c1 (stereo unspecified)	-23.2	29.1 µM [falling, single point]	–
COc1cc(CC(=O)OCC(=O)Nc2ccc([N+](=O)[O-])cc2)cc(OC)c1OC	113	20.6 µM [rising, partial curve]	20.6 µM [rising, partial curve]
O=[N+]([O-])c1cccc(/C=C/c2nc(C=Nc3ccc4ccccc4c3)c(O)o2)c1	1.44	29.1 µM [falling, single point]	–
O=C(CSc1nc(-c2ccccc2)c(-c2ccccc2)[nH]1)N1CCN(S(=O)(=O)c2ccccc2)CC1	67.3	–	6.51 µM [rising, partial curve]
O=C(OCC(=O)N1CCN(C(=O)c2ccco2)CC1)c1sc2cc(F)ccc2c1Cl	-19.6	29.1 µM [falling, single point]	–
COc1ccc(/C=N/n2cnc3c([nH]c4ccc(Br)cc43)c2=O)cc1CN1CCOCC1	-9.96	–	3.66 µM [falling, single point]
CCOc1ccccc1N(C(=O)c1snc(C(N)=O)c1N)C(C(=O)NCC1CCCO1)c1ccc2ncccc2c1 (stereo unspecified)	-1.3	6.51 µM [rising, single point]	–
O=C(NCCc1ccc(Cl)cc1)C1CCCO1 (stereo unspecified)	54.1	29.1 µM [rising, single point]	2.06 µM [rising, partial curve]
C/C(N)=C(/C#N)C(=O)COC(=O)c1cc2c(s1)CCC(C)C2 (stereo unspecified)	-15.5	0.00461 µM [falling, full curve, poor fit]	0.461 µM [falling, full curve]
C/C(=N/NC(=O)c1cc(Cl)ccc1O)C12CC3CC(CC(C3)C1)C2	-33.5	29.1 µM [falling, single point]	32.6 µM [falling, single point]
CCOC(=O)C1=C(C)NC(SCC(=O)Nc2cc(C)on2)=C(C#N)C1c1cccs1 (stereo unspecified)	-15.2	–	–
CCOC(=O)N1CCN(C(=O)c2ccccc2CCc2ccccc2)CC1	58.5	29.1 µM [rising, single point]	18.4 µM [rising, single point]
COc1cccc2cc(C(C)N(CCCN3CCOCC3)C(=O)Nc3ccc(Cl)cc3)oc12 (stereo unspecified)	-32.9	29.1 µM [falling, single point]	29.1 µM [falling, single point]
Cc1ccc(N2C(=O)c3n[nH]c(C)c3C2c2cccnc2)cc1 (stereo unspecified)	-1.43	–	–
CCN(CC(=O)NCc1cccs1)C(=O)/C=C/c1cc(OC)ccc1OC	-8.02	–	–
Cc1ccsc1/C=N/n1c(-c2ccccn2)n[nH]c1=S	-38.6	4.61 µM [rising, full curve]	32.6 µM [falling, single point]
O=C(Nc1ccccc1Cl)NC1(C(=O)N2CCCCC2)CCCCC1	-15.5	14.6 µM [falling, partial curve, poor fit]	–
OC(CNC1CCCCC1)CN1CCN(CC(O)CNC2CCCCC2)CC1 (stereo unspecified)	-14.7	3.26 µM [falling, full curve]	0.00461 µM [falling, full curve, poor fit]

Two successive compounds already listed, quoted:
SMILES	cell number change [%]	AC50 [1]	AC50 [2]
O=C(Nc1ccccc1Cl)NC1(C(=O)N2CCCCC2)CCCCC1	-15.5	14.6 µM [falling, partial curve, poor fit]	–
OC(CNC1CCCCC1)CN1CCN(CC(O)CNC2CCCCC2)CC1 (stereo unspecified)	-14.7	3.26 µM [falling, full curve]	0.00461 µM [falling, full curve, poor fit]

Following part.

SMILES	cell number change [%]	AC50 [1]	AC50 [2]
Cc1cc(=O)n2nc(N3CCCC3C(=O)Nc3cccc(Cl)c3C)sc2n1 (stereo unspecified)	22.5	–	0.82 µM [rising, full curve, poor fit]
CSc1ccccc1C(=O)Nc1cc([N+](=O)[O-])ccc1C	-11.4	32.6 µM [falling, single point]	–
COc1ccc(NC(=S)N2CCC(NC(=O)c3ccc(F)cc3)CC2)cc1	2.99	–	–
Oc1ccc(/C=N/Nc2ncc(Cl)cc2Cl)cc1	–	29.1 µM [rising, single point]	–
Clc1ncn(CCOc2ccccc2)c1Cl	–	0.651 µM [rising, single point]	–
Cc1c(CNC2CCCC2)c(C(=O)O)c(C)n1Cc1ccccc1	-7.4	0.103 µM [falling, full curve, poor fit]	–
CCN(CC)C(=O)C(=O)c1ccn(-c2c(C)csc2C(=O)OC)c1	-14.5	32.6 µM [falling, single point]	–
O=C(NNCc1ccc(O)cc1)c1ccccc1Cl	19.4	–	–
C=CCN(C(=O)c1csnn1)C(C(=O)NCc1ccc(F)cc1)c1cccs1 (stereo unspecified)	3.85	2.91 µM [falling, single point]	–
Cc1ccc(S(=O)(=O)N2CCC(C(=O)Nc3ccc(S(=O)(=O)N4CCCC4)cc3)CC2)cc1	-31.3	18.4 µM [falling, single point]	16.4 µM [falling, single point]
Cc1nc(Nc2ccncc2)c2oc3ccccc3c2n1	83.9	2.59 µM [falling, partial curve]	6.51 µM [falling, single point]
COc1ccc(-c2oc(=O)n(C)c2-c2ccc(OC)cc2)cc1	–	5.8 µM [rising, single point]	6.51 µM [rising, single point]
Cc1nccn1CCCNC(=O)CC1C(=O)NCCN1Cc1ccc(F)cc1Cl (stereo unspecified)	-4.88	0.013 µM [falling, full curve, poor fit]	–
COc1ccc(S(=O)(=O)N(CC(=O)NCc2cccnc2)C2CCCCC2)cc1OC	13.3	6.51 µM [rising, single point]	–
Cc1ccc2c(C)c(C(=O)NCC(C)(C)N3CCOCC3)oc2c1C	17.3	16.4 µM [rising, partial curve]	–
C#CCOCCOCCOCCNc1nc(N2CCN(C(=O)CCCCCCCCCCNC(=O)[C@H]([C@@H](C)CC)n3cc(CCCCN=C(N)N)nn3)CC2)nc(N2CCN(C(=O)CCCCCCCCCCNC(=O)[C@@H]([C@H](C)O)n3cc(C)nn3)CC2)n1	-43.4	9.2 µM [falling, partial curve]	8.2 µM [falling, partial curve, poor fit]
COc1ccc(CC(=O)N2N=C(c3ccncc3)CC2(O)C(F)(F)F)cc1 (stereo unspecified)	–	3.66 µM [rising, full curve]	3.26 µM [rising, single point]
COC(=O)[C@@]12CCCCN1[C@H](c1ccc(SC3CCCCC3)c(OC)c1)[C@@H]1C(=O)N(C)C(=O)[C@@H]12	17.6	0.103 µM [rising, full curve, poor fit]	–
CC1(c2ccccc2)NC(=O)N(CC(=O)NNC(=O)c2ccccc2F)C1=O (stereo unspecified)	-24	–	0.0058 µM [falling, full curve, poor fit]
CCCSc1nc(N2CCOCC2)c2c(c1C#N)CC(C)(C)SC2	–	1.3 µM [falling, full curve]	–
N#Cc1c(N)nc2c(c1-c1ccncc1)CCCCC2	-21.3	–	–
Cc1onc(NC(=O)c2ccc(Cl)cc2Cl)c1Br	20.8	0.00461 µM [falling, full curve, poor fit]	–
O=C(NC(=S)Nc1ccccc1Br)C1CCCC1	28.4	14.6 µM [rising, partial curve]	–
COc1ccc(Cn2nnnc2C(c2ccccn2)N2CCN(c3cc(Cl)ccc3C)CC2)cc1 (stereo unspecified)	-8.91	–	1.16 µM [falling, single point]
Cc1nc(CS(=O)(=O)c2ccc(Cl)cc2)cc(Sc2ccccc2Cl)n1	32.6	18.4 µM [rising, single point]	18.4 µM [rising, single point]
COc1ccc(CCNC(=O)/C=C/c2ccc(C)cc2)cc1OC	-38.5	8.2 µM [falling, partial curve]	9.2 µM [falling, partial curve]
COC(=O)[C@@]12CCCN1[C@H](c1ccc(-c3ccc(F)cc3)c(OC)c1)[C@H]1C(=O)N(C)C(=O)[C@H]12	17.9	0.146 µM [falling, full curve, poor fit]	–
